Source: PubChem BioAssay AID504793 (Drosophila RNAi Screening Center, 2011)

- Assay: 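Whole-genome screen for parts of the DNA damage checkpoint at G2/M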 (primary screen)
- Cell system: Drosophila S2R+ cells
- Reagents: long dsRNA against Drosophila genes, about 0.25 µg dsRNA per well
- Timing: 4 days of dsRNA, then 4 hours of drug before read-out
- Treatment: doxorubicin 0.5 µM for 4 hours to cause double-strand breaks, in cells also given a low, harmless dose of dsRNA against nbs to sensitise the assay
- Read-out: 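Per-well count of mitotic cells stained for phospho-histone H3 after doxorubicin exposure, used as mitotic index; counts are raw and not normalised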
- Direction: mitotic cells: higher = more cells in mitosis, weaker G2 arrest
- Call rule: 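Genes are called active only when high mitotic counts were reproduced with independent dsRNAs and mitosis was checked for delay without damage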
- Meaning of the calls: active = confirmed in follow-up tests; inactive = not confirmed
The deposit covers about 23,000 reagents; shown is a random part of those that have a named target and a result. In the full data, 62 (0.27%) got an active call. 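Calls come from follow-up tests whose scores are not deposited, so confirmed genes may have low counts here; counts are not normalised per plate.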 Raw values are not corrected between plates. Reagents against one gene are numbered here. Names joined by + are all predicted targets of the reagent. Reagent sequences are not shown.

predicted target | dsRNA no. | mitotic cells, replicate 1 | mitotic cells, replicate 2 | Call
CG6340 | 1 | 3 | 9 | inactive
CG6340 | 2 | 7 | – | inactive
CG12128 | 1 | – | – | inactive
CG12128 | 2 | 4 | – | inactive
jim | 1 | 5 | – | inactive
jim | 2 | 6 | – | inactive
ppk5 | 1 | 7 | – | inactive
Hs2st | 1 | 6 | – | inactive
Lhr | 1 | 8 | – | inactive
Lhr | 2 | 10 | – | inactive
CG31468 | 1 | 53 | – | inactive
CG9837 | 1 | 6 | – | inactive
CG9837 | 2 | 5 | – | inactive
sol | 1 | 4 | – | inactive
sol | 2 | 3 | – | inactive
CG17104 | 1 | 3 | – | inactive
CG17104 | 2 | 4 | – | inactive
egg | 1 | 11 | – | inactive
egg | 2 | 5 | – | inactive
egg | 3 | 4 | – | inactive
CG6788 + CR32496 | 1 | 6 | – | inactive
CG3511 | 1 | 5 | – | inactive
CG3511 | 2 | 5 | – | inactive
Acp29AB | 1 | 4 | – | inactive
fs(1)Yb | 1 | 14 | – | inactive
CG13295 | 1 | 1 | – | inactive
comr | 1 | 5 | – | inactive
tipE | 1 | 2 | – | inactive
tipE | 2 | 6 | – | inactive
CG13613 | 1 | 11 | – | inactive
meep | 1 | 21 | – | inactive
meep | 2 | 12 | – | inactive
spt4 | 1 | 6 | – | inactive
Rtf1 | 1 | 8 | – | inactive
Rtf1 | 2 | 3 | – | inactive
nmdyn-D6 | 1 | 11 | – | inactive
Tasp1 | 1 | 6 | – | inactive
CG12637 | 1 | 10 | – | inactive
CG12637 | 2 | 5 | – | inactive
rdgC | 1 | 4 | – | inactive
CG3226 | 1 | 6 | – | inactive
Cirl | 1 | 10 | – | inactive
Cirl | 2 | 11 | – | inactive
CG5611 | 1 | 11 | – | inactive
kmr | 1 | 2 | – | inactive
kmr | 2 | 6 | – | inactive
kmr | 3 | 7 | – | inactive
kmr | 4 | 3 | – | inactive
kmr | 5 | 6 | – | inactive
BEAF-32 | 1 | 13 | – | inactive
CG30183 | 1 | 4 | – | inactive
CG30183 | 2 | 3 | – | inactive
CG31326 | 1 | 1 | – | inactive
CG31326 | 2 | 4 | – | inactive
sty | 1 | 11 | – | inactive
sty | 2 | 4 | – | inactive
CG13958 (retired record) | 1 | 4 | – | inactive
CG13958 (retired record) | 2 | 2 | – | inactive
Wnt6 | 1 | 3 | – | inactive
Wnt6 | 2 | 6 | – | inactive
CG5697 | 1 | 1 | – | inactive
ZnT41F | 1 | 7 | – | inactive
CG31251 | 1 | 7 | – | inactive
GstD6 | 1 | 4 | – | inactive
GstD6 | 2 | 7 | – | inactive
CG30114 | 1 | 8 | – | inactive
CG30114 | 2 | 9 | – | inactive
l(3)72Dp | 1 | 3 | – | inactive
morgue | 1 | 2 | – | inactive
lark | 1 | 6 | – | inactive
lark | 2 | 6 | – | inactive

Individual results from above.
CG12637 #1, mitotic cells, replicate 1: 10
Under “mitotic cells, replicate 2”, CG6340 #1 shows 9
Under “mitotic cells, replicate 1”, lark #1 reads 6
Entry of sty #2 under “mitotic cells, replicate 1”: 4
Result of jim #1 under “mitotic cells, replicate 1”: 5

The list goes on:
predicted target | dsRNA no. | mitotic cells, replicate 1 | mitotic cells, replicate 2 | Call
eIF4EHP | 1 | 9 | – | inactive
eIF4EHP | 2 | 12 | – | inactive
mRpS21 | 1 | 8 | – | inactive
mRpS21 | 2 | 11 | – | inactive
mRpS21 | 3 | 7 | – | inactive
rogdi | 1 | 7 | – | inactive
CG33181 | 1 | 10 | – | inactive
CG33181 | 2 | 5 | – | inactive
CG33181 | 3 | 9 | – | inactive
CG12990 | 1 | 2 | – | inactive
dhd | 1 | 6 | – | inactive
dhd | 2 | 7 | – | inactive
SLO2 | 1 | 5 | – | inactive
SLO2 | 2 | 7 | – | inactive
SLO2 | 3 | 8 | – | inactive
SLO2 | 4 | 12 | – | inactive
SLO2 | 5 | 2 | – | inactive
CG5096 | 1 | 3 | – | inactive
CG12289 | 1 | 3 | – | inactive
Eglp1 | 1 | 9 | – | inactive
CG2003 | 1 | 6 | – | inactive
CG4839 | 1 | 7 | – | inactive
CG4839 | 2 | 6 | – | inactive
Scgbeta | 1 | 12 | – | inactive
CG15873 | 1 | 6 | – | inactive
CG17375 | 1 | 5 | – | inactive
CG17375 | 2 | 8 | – | inactive
Syx17 | 1 | 8 | – | inactive
CG6230 | 1 | 5 | – | inactive
CG1910 | 1 | 6 | – | inactive
CG1910 | 2 | 14 | – | inactive
TotE | 1 | 15 | – | inactive
Esyt2 | 1 | 4 | – | inactive
spn-E | 1 | 5 | – | inactive
ZnT35C | 1 | 4 | – | inactive
Ugt37A2 | 1 | 9 | – | inactive
Ugt37A2 | 2 | 7 | – | inactive
CG32547 | 1 | 26 | – | inactive
CG32547 | 2 | 8 | – | inactive
